Library compounds against nucleic acid targets

Data from the ROBIN nucleic acid binder screens, doi:10.1002/anie.202211358.

Targets, with sequences 5′ to 3′:
PreQ1: PreQ1 riboswitch RNA pseudoknot, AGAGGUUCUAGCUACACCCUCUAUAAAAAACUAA. From B. subtilis. About 24,000 compounds screened, about 170 hits.
SAM-II: SAM-II riboswitch RNA pseudoknot, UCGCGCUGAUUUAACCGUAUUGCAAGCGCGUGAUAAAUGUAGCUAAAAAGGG. About 21,000 compounds screened, about 200 hits.
TPP: TPP riboswitch RNA three-way junction, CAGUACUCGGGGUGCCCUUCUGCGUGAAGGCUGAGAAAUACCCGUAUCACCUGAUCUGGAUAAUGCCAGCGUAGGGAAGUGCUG. About 24,000 compounds screened, about 160 hits.

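The test is a small-molecule microarray: each compound is printed twice on a reactive slide, and binding shows as fluorescence of the labelled oligonucleotide after washing. For the PreQ1, TPP and SAM-II riboswitches the laboratory earlier reported (doi:10.1038/s41467-019-09493-3) 1 µM RNA, 2 h, and a rule that included a mean Z-score above 3 (spot signal-to-noise against the whole library), a score well above that on a control array, and duplicate spots agreeing (coefficient of variation under 100). The data file gives only the calls; its cut-offs may differ, and compounds hitting several targets are kept. A missing hit is not proof of no binding, and a hit is not a measured affinity.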 A compound is marked hit if it was called a hit and no hit if it was screened but was not. The compounds are a random part of those screened. A dash means that no call is listed here.

SMILES	PreQ1	SAM-II	TPP
N/C(CC(=O)Nc1cc(C(F)(F)F)ccc1Cl)=N\O	no hit	no hit	no hit
COc1ccccc1S(=O)(=O)N1CCC2(CC1)[C@H](O)C[C@@H]2O	no hit	no hit	no hit
CC1CN(CCc2ccccc2)c2nc3c(c(=O)n(CCCO)c(=O)n3C)n2C1 (centres undefined)	no hit	-	no hit
c1ccc(CNc2nc(N3CCOCC3)nc3ccccc23)cc1	no hit	no hit	no hit
Cc1ccccc1NC(=O)CCNc1cc(N2CCOCC2)nc(N)n1	no hit	no hit	no hit
COc1cccc(Nc2c(C(N)=O)cnc3c(C)cc(S(=O)(=O)c4cccc(C(=O)N(C)C)c4)cc23)c1	no hit	no hit	no hit
CCn1c(C2CCN(C(=O)CC3=CCNCC3)CC2)n[nH]c1=O	no hit	no hit	no hit
Cc1ccc(C2C(C#N)=C(N)Oc3c2oc(CO)cc3=O)cc1C (centres undefined)	no hit	no hit	no hit
COC(=O)C1=C(N)Oc2c(oc(CO)cc2=O)C1c1cccc(F)c1 (centres undefined)	no hit	no hit	no hit
Nc1nonc1C(=O)OCC(=O)c1ccc([N+](=O)[O-])cc1	no hit	no hit	no hit
COc1cccc(C(=O)N2CCNCC2C(=O)N2CCN(C)CC2)c1C (centres undefined)	no hit	no hit	no hit
Cc1nc2c(c(NCc3c(C)cc(Cl)cc3Cl)n1)CCNC2	hit	hit	hit
Cc1cccc(C2C(C#N)=C(N)Oc3c2c(=O)n(C)c2ccccc32)c1 (centres undefined)	no hit	no hit	no hit
Cc1cc(C(=O)N2CCC(c3nnc(CN(C)CCO)n3C)CC2)nc(C)n1	no hit	no hit	no hit
OCC#Cc1ccc(CN2CCC(c3ccnc(-c4ccccc4)c3)C2)cc1 (centres undefined)	no hit	no hit	no hit
Cc1cc(N2CCC(CO)(CC3CCCCO3)CC2)nc2ccccc12 (centres undefined)	no hit	no hit	no hit
COc1cc(CC2CC(CO)=NO2)c(OC)c2c1OCO2 (centres undefined)	no hit	no hit	no hit
C=CCN/C(=N/C#N)SC	no hit	no hit	no hit
Nc1c(C(=O)c2cc3ccccc3o2)oc2ccc(Br)cc12	no hit	no hit	no hit
Cn1c(=O)c2[nH]c(N3CCN(CCO)CC3)nc2n(C)c1=O	no hit	-	no hit
COCCNc1nc2c(c(=O)n(Cc3ccc(F)cc3)c(=O)n2C)n1C	no hit	no hit	no hit
CS(=O)(=O)O.O=C1CCC2(O)[C@@H]3Cc4ccc(O)c5c4[C@@]2(CCN3Cc2ccoc2)C1O5 (some centres undefined)	no hit	no hit	no hit
Nc1c(-c2nc(-c3ccccc3)no2)nnn1-c1ccc(Cl)cc1	no hit	-	no hit
CCCC1OC(c2cc3c(cc2Cl)OCO3)OCC1CC (centres undefined)	no hit	no hit	no hit
COCCNCc1ccc(-c2ccc(O)cc2)cc1	no hit	no hit	no hit
O=C1[C@H]2CC[C@H](CN(CCCCCCO)C2)N1Cc1cscn1	no hit	no hit	no hit
COc1cc(N2CCN(C)CC2)ccc1Nc1nc(N)c(C(=O)c2c(Cl)cccc2Cl)s1	no hit	no hit	no hit
O=C(c1nc(-c2ccccc2)n(-c2cccc(Cl)c2)n1)N(CCO)CCO	no hit	-	no hit

The last 2 entries again:

| SMILES | PreQ1 | SAM-II | TPP |
|---|---|---|---|
| `COc1cc(N2CCN(C)CC2)ccc1Nc1nc(N)c(C(=O)c2c(Cl)cccc2Cl)s1` | no hit | no hit | no hit |
| `O=C(c1nc(-c2ccccc2)n(-c2cccc(Cl)c2)n1)N(CCO)CCO` | no hit | - | no hit |